Experiment [1] deals with HOXA1^ΔHD (mouse) (UniProt P09022). Nature of the experiment: split reporter; BiFC with VN173 and VC155 moieties of Venus in transfected COS-7 cells, fixed 24 h after transfection, confocal microscopy; positive when the signal was at least 3 times that of the 3 control conditions.
The target of experiment [2] is HOXA2^ΔHD (mouse) (UniProt P31245). The experiment is described as above.
Experiment [3] concerns the target HOXA1 (mouse) (UniProt P09022). Nature of the experiment: pull-down; glutathione coprecipitation: HEK293T cells co-transfected with plasmids for a GST-tagged and a FLAG-tagged protein; lysis in IPLS buffer (20 mM Tris-HCl pH 7.5, 120 mM NaCl, 0.5 mM EDTA, 0.5% NP40, 10% glycerol); overnight on glutathione-sepharose beads at 4 °C; Western blot with anti-FLAG and anti-GST.

Protein sequences, listed by entry. Tags and fused reporters are not part of them. Lines headed by an entry give the natural chain unless they say otherwise; changes in a name come on top.
UniProt P09022: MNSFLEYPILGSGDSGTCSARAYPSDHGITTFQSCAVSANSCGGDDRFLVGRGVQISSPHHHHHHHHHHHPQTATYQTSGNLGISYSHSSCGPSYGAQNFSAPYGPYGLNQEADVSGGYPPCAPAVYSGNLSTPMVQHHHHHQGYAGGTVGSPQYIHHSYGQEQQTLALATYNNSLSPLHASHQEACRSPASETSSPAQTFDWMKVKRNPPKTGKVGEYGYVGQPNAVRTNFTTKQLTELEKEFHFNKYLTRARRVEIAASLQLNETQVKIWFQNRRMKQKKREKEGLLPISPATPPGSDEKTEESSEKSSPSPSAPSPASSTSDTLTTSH
UniProt P31245: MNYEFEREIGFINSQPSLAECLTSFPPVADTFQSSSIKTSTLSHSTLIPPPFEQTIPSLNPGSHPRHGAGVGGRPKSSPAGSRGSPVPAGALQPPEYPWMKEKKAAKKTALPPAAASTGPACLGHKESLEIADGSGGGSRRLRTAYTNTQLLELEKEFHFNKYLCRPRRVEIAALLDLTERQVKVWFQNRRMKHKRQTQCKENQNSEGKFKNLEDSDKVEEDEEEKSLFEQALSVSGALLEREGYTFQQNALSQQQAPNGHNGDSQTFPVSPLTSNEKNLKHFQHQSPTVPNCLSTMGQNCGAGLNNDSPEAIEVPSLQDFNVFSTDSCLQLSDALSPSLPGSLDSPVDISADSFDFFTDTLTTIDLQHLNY
UniProt O60479: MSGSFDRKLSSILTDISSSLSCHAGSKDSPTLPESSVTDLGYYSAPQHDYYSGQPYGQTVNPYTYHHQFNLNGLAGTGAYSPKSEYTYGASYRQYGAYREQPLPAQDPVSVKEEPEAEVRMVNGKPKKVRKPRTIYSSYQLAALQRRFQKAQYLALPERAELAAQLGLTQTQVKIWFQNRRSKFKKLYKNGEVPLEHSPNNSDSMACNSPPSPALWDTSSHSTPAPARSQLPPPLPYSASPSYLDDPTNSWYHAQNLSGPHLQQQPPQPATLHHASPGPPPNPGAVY

Experiment [4] concerns the target HOXA1 (mouse) (UniProt P09022). Nature of the experiment: split reporter; BiFC with VN173 and VC155 moieties of Venus in transfected COS-7 cells, fixed 24 h after transfection, confocal microscopy; positive when the signal was at least 3 times that of the 3 control conditions.
The target in experiment [5] is HOXA1^ΔHD (mouse) (UniProt P09022). The description is as above. The source holds these as a separate data set.
In experiment [6] the target is HOXA2^ΔHD (mouse) (UniProt P31245). Described as above. The source holds these as a separate data set.

Like-named read-outs stand apart in the source and are kept apart here. No constants are given. Whether binding was seen depends on the method and setting. In cells and extracts the contact can be indirect. Binding can be weak; no strength is given.

As to DLX3 (from UniProt O60479 1-287), the binding entry in the experiment with HOXA1^ΔHD (mouse) [1] and with HOXA2^ΔHD (mouse) [2] was “binds” each time.

Regarding HOXA1^ΔHD (from UniProt P09022), the binding entry with HOXA1 (mouse) [3] and with HOXA1 (mouse) [4] was “binds” in each case.

Turning to HOXA2 (from UniProt P31245 1-372), the binding result in the experiment with HOXA1^ΔHD (mouse) [1] was “binds”.

For HOXA2^ΔHD (from UniProt P31245), the binding entry with HOXA1^ΔHD (mouse) [1] and with HOXA1 (mouse) [4] was “binds” throughout.

B1: PBX1A (protein, UniProt P40424-1 1-430)
chain: MDEQPRLMHSHAGVGMAGHPGLSQHLQDGAGGTEGEGGRKQDIGDILQQIMTITDQSLDEAQARKHALNCHRMKPALFNVLCEIKEKTVLSIRGAQEEEPTDPQLMRLDNMLLAEGVAGPEKGGGSAAAAAAAAASGGAGSDNSVEHSDYRAKLSQIRQIYHTELEKYEQACNEFTTHVMNLLREQSRTRPISPKEIERMVSIIHRKFSSIQMQLKQSTCEAVMILRSRFLDARRKRRNFNKQATEILNEYFYSHLSNPYPSEEAKEELAKKCGITVSQVSNWFGNKRIRYKKNIGKFQEEANIYAAKTAVTATNVSAHGSQANSPSTPNSAGSSSSFNMSNSGDLFMSVQSLNGDSYQGAQVGANVQSQVDTLRHVISQTGGYSDGLAASQMYSPQGISANGGWQDATTPSSVTSPTEGPGSVHSDTSN
Regarding B1, the binding entry in the experiment with HOXA1^ΔHD (mouse) [5] and with HOXA2^ΔHD (mouse) [6] was “binds” each time.
